Among the data in PubChem BioAssay AID493014 (National Center for Advancing Translational Sciences (NCATS), 2011) are AC50 values, retold here.

Molecules are shown by their SMILES. The list shows a part of the results. Shown are side measurements of this screen, not its main read-out; they come without a call. Most of these compounds were active or inconclusive in the main read-out, so they are no random draw. Potencies come from curve fits of mixed quality, noted in brackets.

The assay can be described thus: qHTS Assay to Find Inhibitors of Chronic Active B-Cell Receptor Signaling. The conditions noted are these: ABC-DLBCL IkBa-CBG/CBR reporter, luminescence ratio (green luciferase fused to IkBa over red control in TMD8 lymphoma cells), 4 h. In short, it runs like this:
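Doxycycline induced both beetle luciferases in TMD8 lymphoma cells; IKK-driven degradation limits the IkappaBalpha-fused green signal, while red luminescence normalises for cell number and nonspecific effects. Compounds tested up to 46 uM, 4 hrs.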

Where [1] appears, read: measured here: CBR red luminescence, cell number.
Where [2] appears, read: measured here: IkBa-CBG green luminescence.

On to `CCOC(=O)C1=C(C)NC(C)=C(C(=O)OCC)C1`, for which the AC50 under setting [1] is 6.31 µM [falling, single point].
For the compound `NC(=O)C1CCN(C2=C(NS(=O)(=O)c3ccccc3)C(=O)c3ccccc3C2=O)CC1`, the AC50 under setting [1] is 14.1 µM [rising, single point].
Same read-out and setting: the result for `CCOC(=O)/C(C#N)=C1/C=Nc2ccccc2N1` reads 7.31 µM [falling, partial curve, poor fit].
As to `NNc1nc2c(-c3ccc(Cl)cc3)nnn2c2ccccc12`, the AC50 under setting [1] was 1.41 µM [falling, full curve].
Still for that read-out and setting: the result for `COc1ccc(C(=O)OCC(=O)Nc2sccc2C(N)=O)cc1OC` reads 4.47 µM [falling, full curve, poor fit].
As for `O=C(Cn1ncc(Cl)c(Cl)c1=O)c1ccc(Cl)cc1`, the AC50 runs as follows: under setting [1], 6.51 µM [falling, partial curve]; under setting [2], 23.1 µM [rising, partial curve, poor fit].
For `CC(=O)Oc1ccc2c(=O)c(N3C(=O)c4ccccc4C3=O)c(C)oc2c1`, the AC50 under setting [1] was 23.1 µM [rising, single point].
With `COc1ccc(-c2c3c(=O)n(C)c(=O)n(C)c3cn2N2CCOCC2)cc1`, the AC50 was 6.51 µM [rising, partial curve, poor fit] under setting [1] and 16.4 µM [falling, partial curve, poor fit] under setting [2].
In the case of `O=c1cc(CSc2nnnn2-c2ccccc2)nc2scc(-c3ccccc3)n12`, the AC50 under setting [1] is 1.64 µM [falling, partial curve, poor fit].
The same measure, in the same setting: as for `CC1(C)CC(=O)N(CC(=O)O)c2ccccc2S1`, the figure is 12.6 µM [falling, single point]; as for `COc1ccc(OC)c(CCNC(=O)CSc2ccsc2[N+](=O)[O-])c1`, 35.5 µM [rising, single point]; as for `O=C(COC(=O)C1CC2CCCC(C1)C2=O)Nc1ccccc1` (stereo not drawn), 3.66 µM [falling, partial curve, poor fit].
For `O=C(CCOc1ccccc1)Nc1ccccc1`, the AC50 under setting [1] was 11.2 µM [falling, partial curve].
Turning to `COc1cccc(C(=O)NCc2nnc(SCC(=O)Nc3nccs3)n2-c2ccccc2)c1`, the AC50 under setting [1] is 10.3 µM [falling, single point].
For `O=[N+]([O-])c1cc([N+](=O)[O-])c2nonc2c1Nc1ccccc1O`, under setting [1], the AC50 is 8.91 µM [falling, partial curve].
Still for that read-out and setting: the result for `Cc1ccccc1-c1nc(CN2CCC(C(=O)NCCCN3CCCC(C)C3)CC2)c(C)o1` (stereo not drawn) reads 35.5 µM [falling, single point].
With `c1ccc2[nH]c(CCCCc3nc4ccccc4[nH]3)nc2c1`, the half-maximal activity concentration (AC50) under setting [1] was 10 µM [falling, single point].
For the compound `O=C(CN1C(=O)c2ccccc2S1(=O)=O)c1ccc2c(c1)OCCCO2`, the AC50 under setting [1] is 3.55 µM [falling, single point].
Same read-out and setting: as for `O=C1C2ON(c3ccccc3)C(c3cccnc3)C2C(=O)N1c1ccccc1` (stereo not drawn), the figure is 3.66 µM [falling, single point]; as for `COc1ccc(C)cc1NC(=O)CCNC(=O)Cn1cnc2ccccc2c1=O`, 3.16 µM [rising, partial curve, poor fit].
Same read-out and setting: the result for `Cc1ccc(NC(=O)C2=C(O)c3sccc3N(C)S2(=O)=O)cc1` reads 16.4 µM [falling, partial curve]; that for `O=C(O)CCCC(=O)Nc1ccccc1SCCS(=O)(=O)c1ccc(Cl)cc1`, 0.891 µM [falling, partial curve, poor fit]; that for `COc1ccc(C(=O)Nc2ccccc2C(=O)Nc2cc(C)ccn2)cc1`, 14.1 µM [falling, partial curve, poor fit].
As for `O=C(C1CCCCC1)N1CCN(c2ncccn2)CC1`, the AC50 under setting [1] was 4.11 µM [rising, full curve, poor fit].
Same read-out and setting: the result for `C/C(=N/NC(=O)c1ccccn1)c1ccncc1` reads 10 µM [falling, partial curve, poor fit].
Still for that read-out and setting: as for `Cc1cc(C)cc(NC(=O)c2ccc(CSc3nnnn3C)cc2)c1`, the figure is 22.4 µM [falling, single point]; as for `Cc1nnsc1C(=O)NNC(=O)Nc1ccccc1`, 12.6 µM [falling, partial curve]; as for `Cc1ccc(C2=NN(C(=O)CN3CCN(C4CCS(=O)(=O)C4)CC3)C(c3ccco3)C2)cc1` (stereo not drawn), 20.6 µM [falling, single point].
Still for that read-out and setting: the result for `COc1cccc(C(=O)NC(=S)Nc2ccc3[nH]c(=O)[nH]c3c2)c1` reads 7.08 µM [falling, partial curve, poor fit]; that for `Cc1cccc(OCC(O)CN2C(C)(C)CC(O)CC2(C)C)c1C` (stereo not drawn), 3.26 µM [rising, single point].
With `Cc1ccc(CNc2nc3ccc(C)cc3n3cnnc23)cc1`, the AC50 under setting [1] is 0.731 µM [rising, full curve].
The same measure, in the same setting: the result for `Nc1nc(SCc2ccc(F)cc2)ns1` reads 3.16 µM [rising, full curve, poor fit]; that for `CCOc1ccccc1N(CC(=O)Nc1cccnc1)S(C)(=O)=O`, 20.6 µM [rising, partial curve, poor fit].
On the same count and under the same terms, as for `CCC(C)NC(=O)c1c(N)n(/N=C/c2cccnc2)c2nc3ccccc3nc12` (stereo not drawn), the figure is 3.98 µM [falling, partial curve]; as for `O=C(Nc1ccc2c(c1)CCC2)c1ccccc1F`, 16.4 µM [falling, single point]; as for `COc1ccc(Br)cc1CN(C)CC(=O)Nc1cccc(S(N)(=O)=O)c1`, 22.4 µM [rising, single point].
Still for that read-out and setting: as for `COc1cccc(CNC(=O)CCCc2c[nH]c3ccccc23)c1`, the figure is 11.2 µM [falling, partial curve].
With `COc1ccc(-c2nsc(SCC(=O)Nc3cc(C)on3)n2)cc1`, the AC50 under setting [1] was 29.1 µM [falling, single point].
As for `CCC(CO)Oc1cc(NCc2cccc(F)c2)c2ncn(C(C)C)c2c1` (stereo not drawn), under setting [1], the AC50 was 20.6 µM [falling, partial curve, poor fit].
On to `N#Cc1cc2ccccc2nc1N`, for which the AC50 under setting [1] is 6.31 µM [falling, partial curve, poor fit].
For `Cc1cc(C)c(O)c(-c2n[nH]c3c2C(c2cccc(O)c2)N(Cc2ccco2)C3=O)c1` (stereo not drawn), the concentration at half-maximal activity (AC50) under setting [1] was 25.1 µM [falling, single point].
Turning to `O=C(Nc1cccnc1)c1ccc([N+](=O)[O-])o1`, the AC50 under setting [1] was 35.5 µM [falling, single point].
On the same count and under the same terms, as for `Cc1ccc(S(=O)(=O)N(C)C)cc1NC(=O)CSc1ncc(C(F)(F)F)cc1Cl`, the figure is 23.1 µM [falling, partial curve].
The same measure, in the same setting: as for `COc1c(Br)cc(C(N)=O)cc1OCc1ccccc1`, the figure is 9.2 µM [rising, partial curve, poor fit].
The same measure, in the same setting: as for `Cc1cc(=O)n(-c2ccc3ccccc3n2)[nH]1`, the figure is 25.9 µM [falling, single point]; as for `O=C(CCCCCn1c(=O)[nH]c2ccsc2c1=O)NCc1ccc(F)cc1`, 29.1 µM [falling, single point]; as for `COc1ccc(C2/C=C\CN(C(=O)Nc3ccc(C(F)(F)F)cc3)CC(=O)N2Cc2ccc(F)cc2)cc1` (stereo not drawn), 7.08 µM [rising, partial curve].
As for `C/C(N)=C(/C#N)C(=O)COC(=O)c1cc(-c2cccc(Br)c2)nc2ccccc12`, the AC50 under setting [1] was 32.6 µM [falling, partial curve, poor fit].
Still for that read-out and setting: the result for `O=C(COC(=O)CCc1nc2ccccc2c(=O)[nH]1)Nc1ccc(OC(F)(F)F)cc1` reads 20.6 µM [rising, single point]; that for `Cc1cnc(C(=O)N2CCCC(C(=O)c3ccc(C(F)(F)F)cc3)C2)cn1` (stereo not drawn), 2.51 µM [falling, full curve]; that for `Cc1nnc(-c2cnn(C)c2N)n1CCCN(C)C`, 20 µM [rising, partial curve, poor fit].
As for `O=C(Nc1ccccc1)C1=C[C@H](c2coc3ccccc3c2=O)C[C@H](OCc2ccc(CO)cc2)O1`, the AC50 by setting is: under setting [1], 35.5 µM [falling, single point]; under setting [2], 14.1 µM [rising, partial curve, poor fit].
For `O=C(Cc1ccccc1)Nc1cccc(N2CCCC2)c1`, the half-maximal activity concentration (AC50) under setting [1] was 29.1 µM [rising, single point].
For the compound `O=C(NCc1ccccc1)c1c[nH]c2cc3c(cc2c1=O)OCCO3`, under setting [1], the AC50 is 18.4 µM [falling, single point].
`CCn1cnc2cc(NCc3ccncc3)ccc21`: under setting [1], the AC50 was 29.1 µM [rising, single point].
Regarding `CCOc1ccc(NC(=O)NCCCN2CCCC2)cc1`, the AC50 under setting [1] was 9.2 µM [falling, partial curve, poor fit].
The same measure, in the same setting: the result for `O=C(NCCN1CCOCC1)c1ccccc1N1C(=O)[C@@H]2Cc3c([nH]c4ccccc34)C(c3ccccc3)N2C1=O` (stereo partly drawn) reads 0.891 µM [falling, full curve, poor fit].
For `O=C(Nc1ccc2sccc2c1)c1cccc(N2C(=O)CCC2=O)c1`, the AC50 under setting [1] is 11.2 µM [falling, partial curve, poor fit].
With `CCOc1ccc(S(=O)(=O)NCc2ccccn2)cc1NC(=O)c1ccccc1F`, the AC50 is 2.24 µM [rising, full curve] under setting [1] and 2.82 µM [falling, full curve, poor fit] under setting [2].
Regarding `Cn1c(NNC(=O)c2ccccc2F)cc(=O)n(C)c1=O`, the AC50 under setting [1] is 35.5 µM [falling, single point].
In the case of `CCN(CC)c1ccc(NC2=C(Cl)C(=O)c3ccccc3C2=O)cc1`, the AC50 under setting [1] was 29.1 µM [falling, single point].
With `CCOC(=O)C1CCN(C(=O)/C=C/c2ccc(OC)cc2)CC1`, the AC50 under setting [1] is 0.206 µM [falling, full curve].
On the same count and under the same terms, the result for `COc1ccc(NC(=S)N(CCCN2CCCC2)Cc2cccs2)cc1` reads 0.164 µM [rising, full curve, poor fit]; that for `Cc1ccc(NC(=O)CCCc2ccccc2)nc1`, 35.5 µM [falling, single point].
